According to the supplement of paper PMC4604168 (melanoma cell lines):
Some of the results follow. Single values are uncertain, as repeats are few or missing.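 Imaging used 1,536-well plates; nuclei positive for cleaved PARP by antibody were divided by total DNA-stained nuclei to yield the apoptosis fraction. Doses for screening kept most cells viable, and cell lines differ markedly in resting and induced cleaved-PARP levels.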

How the values were obtained:
Assay in all cases: cleaved PARP positive nuclei fraction relative to DMSO control; melanoma cells; higher = more apoptosis
Conditions in all cases: library dose: low library concentration; 72 h
[1] = system: WM115
[2] = system: WM1716
[3] = system: WM1745
[4] = system: WM3526
[5] = system: WM3619
[6] = system: WM451Lu

Compound | cleaved PARP positive nuclei fraction [1] [%] | cleaved PARP positive nuclei fraction [2] [%] | cleaved PARP positive nuclei fraction [3] [%] | cleaved PARP positive nuclei fraction [4] [%] | cleaved PARP positive nuclei fraction [5] [%] | cleaved PARP positive nuclei fraction [6] [%]
CC(C)(C)c1cnc(CSc2cnc(NC(=O)C3CCNCC3)s2)o1 + NC(=O)Nc1cc(-c2cccc(F)c2)sc1C(=O)N[C@H]1CCCNC1 [AZD7762] (first compound 0.01 µM, partner dose 0.02 µM) | 301 | 131 | 104 | 63.1 | 155 | 158
CC(C)(C)c1cnc(CSc2cnc(NC(=O)C3CCNCC3)s2)o1 + Oc1cc(-c2nc(-c3ccccc3)[nH]c2-c2ccncc2)ccc1Cl [L779450] (first compound 0.01 µM, partner dose 0.2 µM) | 151 | 97 | 130 | 78.6 | 90.1 | 53.1
COCC[n+]1c2c(n(Cc3cnccn3)c1C)C(=O)c1ccccc1C2=O + Cn1nnc2c(C(N)=O)ncn2c1=O [temozolomide] (first compound 0.0004 µM, partner dose 2 µM) | 165 | 41.9 | 75.2 | 102 | 85.6 | 147
C#Cc1cccc(Nc2ncnc3cc(OCCOC)c(OCCOC)cc23)c1 [erlotinib] + COCC[n+]1c2c(n(Cc3cnccn3)c1C)C(=O)c1ccccc1C2=O [YM155] (first compound 0.8 µM, partner dose 0.0004 µM) | 106 | 121 | 120 | 298 | 108 | 59.5
Cc1ccc(NC(=O)c2cccc(N(C)C)c2)cc1NC(=O)c1ccc(O)cc1 + O=c1cc(-c2cccc3c2Sc2ccccc2S3)oc(N2CCOCC2)c1 [KU55933] (first compound 2 µM, partner dose 1 µM) | 83.7 | 52.9 | 105 | 74.2 | 87.6 | 78.2
Cn1c(Nc2ccc(C(F)(F)F)cc2)nc2cc(Oc3ccnc(-c4ncc(C(F)(F)F)[nH]4)c3)ccc21 + CCCCCCCCCCCC1=C(O)C(=O)C=C(O)C1=O [Embelin] (first compound 0.08 µM, partner dose 1.2 µM) | 368 | 136 | 135 | 63.5 | 136 | 196
C[C@]1(c2nc3c(C(N)=O)cccc3[nH]2)CCCN1 [Veliparib] + O=C(O)c1ccc(-c2c[nH]c3ncc(-c4ccccc4)cc23)cc1C1CCCC1 [GSK650394] (first compound 1.4 µM, partner dose 0.16 µM) | 162 | 98.4 | 113 | 61.7 | 128 | 139
C=CCn1c(=O)c2cnc(Nc3ccc(N4CCN(C)CC4)cc3)nc2n1-c1cccc(C(C)(C)O)n1 + COc1ccc(COc2ccc(Cc3cnc(N)nc3N)cc2OC)cc1 [GW2580] (first compound 0.02 µM, partner dose 1 µM) | 146 | 165 | 111 | 62.9 | 122 | 36.7
Nc1cccc2c1CN(C1CCC(=O)NC1=O)C2=O (stereo unspecified) [lenalidomide] + Cc1cc(N2CCOCC2)cc2[nH]c(-c3c(NC[C@@H](O)c4cccc(Cl)c4)cc[nH]c3=O)nc12 [BMS536924] (first compound 1 µM, partner dose 0.2 µM) | 172 | 64.2 | 119 | 169 | 102 | 56.4
Cn1nnc2c(C(N)=O)ncn2c1=O [temozolomide] + COc1ccc(COc2ccc(Cc3cnc(N)nc3N)cc2OC)cc1 [GW2580] (first compound 2 µM, partner dose 1 µM) | 132 | 214 | 110 | 65.4 | 82.6 | 144
C=CCNC1=C2C[C@@H](C)C[C@H](OC)[C@H](O)[C@@H](C)/C=C(\C)[C@H](OC(N)=O)[C@@H](OC)/C=C\C=C(/C)C(=O)NC(=CC1=O)C2=O [Tanespimycin] + OCCn1cc(-c2cnc3nnn(Cc4ccc5ncccc5c4)c3n2)cn1 [PF04217903] (first compound 0.002 µM, partner dose 1 µM) | 34.9 | 82.7 | 103 | 64.5 | 108 | 119
O=C(CCCCCCC(=O)Nc1ccccc1)NO [vorinostat] + O=C1NC(=O)/C(=C/c2ccc(-c3ccc(F)cc3O)o2)S1 [AS252424] (first compound 0.08 µM, partner dose 1 µM) | 136 | 66.1 | 105 | 147 | 93.4 | 88
C#Cc1cccc(Nc2ncnc3cc(OCCOC)c(OCCOC)cc23)c1 [erlotinib] + C[C@@H]1CCN(C(=O)CC#N)C[C@@H]1N(C)c1ncnc2[nH]ccc12 [CP690550] (first compound 0.8 µM, partner dose 1 µM) | 102 | 151 | 219 | 59.3 | 92 | 50
Cn1c(Nc2ccc(C(F)(F)F)cc2)nc2cc(Oc3ccnc(-c4ncc(C(F)(F)F)[nH]4)c3)ccc21 + O=C(Nc1cccc(Cl)c1)Nc1ncc(CCNc2ncnc3ccsc23)s1 [SNS314] (first compound 0.08 µM, partner dose 0.0008 µM) | 1540 | 200 | 130 | 130 | 124 | 696
O=C(Nc1cccc(Cl)c1)Nc1ncc(CCNc2ncnc3ccsc23)s1 + NCC(=O)Nc1ccc(-n2nc(C(F)(F)F)cc2-c2ccc3c(ccc4ccccc43)c2)cc1 [OSU03012] (first compound 0.0008 µM, partner dose 1 µM) | 285 | 109 | 112 | 92.7 | 114 | 139
C=CCNC1=C2C[C@@H](C)C[C@H](OC)[C@H](O)[C@@H](C)/C=C(\C)[C@H](OC(N)=O)[C@@H](OC)/C=C\C=C(/C)C(=O)NC(=CC1=O)C2=O [Tanespimycin] + Cc1ccc(NC(=O)c2cccc(N(C)C)c2)cc1NC(=O)c1ccc(O)cc1 [ZM336372] (first compound 0.002 µM, partner dose 2 µM) | 47.8 | 64.2 | 98.7 | 102 | 84 | 152
CC(C)(C)c1cnc(CSc2cnc(NC(=O)C3CCNCC3)s2)o1 + Cc1cc(N2CCOCC2)cc2[nH]c(-c3c(NC[C@@H](O)c4cccc(Cl)c4)cc[nH]c3=O)nc12 [BMS536924] (first compound 0.01 µM, partner dose 0.2 µM) | 58.1 | 113 | 125 | 25.5 | 87.3 | 243
CC1(C)NC(=O)N(c2ccc([N+](=O)[O-])c(C(F)(F)F)c2)C1=O [nilutamide] + Oc1cc(-c2nc(-c3ccccc3)[nH]c2-c2ccncc2)ccc1Cl [L779450] (first compound 1 µM, partner dose 0.2 µM) | 78.6 | 136 | 105 | 218 | 42.8 | 126
Cc1nc(Nc2ncc(C(=O)Nc3c(C)cccc3Cl)s2)cc(N2CCN(CCO)CC2)n1 [dasatanib] + Cn1c(Nc2ccc(C(F)(F)F)cc2)nc2cc(Oc3ccnc(-c4ncc(C(F)(F)F)[nH]4)c3)ccc21 [CHIR265] (first compound 0.004 µM, partner dose 0.08 µM) | 896 | 102 | 142 | 126 | 126 | 675
C[C@@H]1CCN(C(=O)CC#N)C[C@@H]1N(C)c1ncnc2[nH]ccc12 + O=C(Nc1ccccc1)c1cc([N+](=O)[O-])ccc1Cl [GW9662] (first compound 1 µM, partner dose 2 µM) | 33.9 | 69.1 | 93 | 31.2 | 83.4 | 33.5
Cc1ccc(NC(=O)c2cccc(N(C)C)c2)cc1NC(=O)c1ccc(O)cc1 + CC(C)(C)c1cnc(CSc2cnc(NC(=O)C3CCNCC3)s2)o1 [SNS-032] (first compound 2 µM, partner dose 0.01 µM) | 54.5 | 98.9 | 89.9 | 55 | 99.1 | 198
Cc1cc(N2CCOCC2)cc2[nH]c(-c3c(NC[C@@H](O)c4cccc(Cl)c4)cc[nH]c3=O)nc12 + O=C(Nc1ccccc1)c1cc([N+](=O)[O-])ccc1Cl [GW9662] (first compound 0.2 µM, partner dose 2 µM) | 105 | 89.6 | 113 | 65.2 | 88.6 | 101
CC(=O)c1c(C)c2cnc(Nc3ccc(N4CCNCC4)cn3)nc2n(C2CCCC2)c1=O [palbociclib] + Oc1nc(-c2ccc(C(F)(F)F)cc2)nc2c1CSCC2 [XAV939] (first compound 0.04 µM, partner dose 2 µM) | 170 | 251 | 138 | 127 | 151 | 391
Nc1cccc2c1CN(C1CCC(=O)NC1=O)C2=O (stereo unspecified) [lenalidomide] + N#Cc1c(O)c2c(-c3ccc(-c4ccccc4O)cc3)csc2[nH]c1=O [A769662] (first compound 1 µM, partner dose 2 µM) | 55.6 | 268 | 113 | 146 | 87.4 | 97.5
CO[C@@H]1[C@H](N(C)C(=O)c2ccccc2)C[C@H]2O[C@]1(C)n1c3ccccc3c3c4c(c5c6ccccc6n2c5c31)C(=O)NC4 [Midostaurin] + O=C(Nc1cccc(Cl)c1)Nc1ncc(CCNc2ncnc3ccsc23)s1 [SNS314] (first compound 0.08 µM, partner dose 0.0008 µM) | 389 | 45.9 | 223 | 129 | 122 | 109
CO[C@@H]1[C@H](N(C)C(=O)c2ccccc2)C[C@H]2O[C@]1(C)n1c3ccccc3c3c4c(c5c6ccccc6n2c5c31)C(=O)NC4 [Midostaurin] + O=C1NC(=O)/C(=C/c2ccc(-c3ccc(F)cc3O)o2)S1 [AS252424] (first compound 0.08 µM, partner dose 1 µM) | 165 | 105 | 121 | 197 | 189 | 193

Exported as a markdown table: part of the list above.

| Compound | cleaved PARP positive nuclei fraction [1] [%] | cleaved PARP positive nuclei fraction [2] [%] | cleaved PARP positive nuclei fraction [3] [%] | cleaved PARP positive nuclei fraction [4] [%] | cleaved PARP positive nuclei fraction [5] [%] | cleaved PARP positive nuclei fraction [6] [%] |
| --- | --- | --- | --- | --- | --- | --- |
| CC(=O)c1c(C)c2cnc(Nc3ccc(N4CCNCC4)cn3)nc2n(C2CCCC2)c1=O [palbociclib] + Oc1nc(-c2ccc(C(F)(F)F)cc2)nc2c1CSCC2 [XAV939] (first compound 0.04 µM, partner dose 2 µM) | 170 | 251 | 138 | 127 | 151 | 391 |
| CO[C@@H]1[C@H](N(C)C(=O)c2ccccc2)C[C@H]2O[C@]1(C)n1c3ccccc3c3c4c(c5c6ccccc6n2c5c31)C(=O)NC4 [Midostaurin] + O=C(Nc1cccc(Cl)c1)Nc1ncc(CCNc2ncnc3ccsc23)s1 [SNS314] (first compound 0.08 µM, partner dose 0.0008 µM) | 389 | 45.9 | 223 | 129 | 122 | 109 |
